From paper doi:10.1101/2022.02.15.480489 (bioRxiv, 2022)
Results are given in words; binding and its absence hold for the method and conditions named.

Target: eAna2(ΔCC)-mNG (Ana2 lacking the central coiled-coil domain, aa195-229, with C-terminal mNG) (Drosophila melanogaster) (UniProt Q9XZ31)
Assay: fluorescence correlation spectroscopy

B1: eAna2(ΔCC)-mNG (Ana2 lacking the central coiled-coil domain, aa195-229, with C-terminal mNG) (protein, UniProt Q9XZ31)
chain: MFVPETEDMLPRLAPRPSAAVPMGHTNEIIGPTVPEVSILFGQPPQDPQMQPQQPNHAHQESSPRAAPTFASWKKQMLPRVNFSPILATELGPRTAPSSNSPCSSKEYQVMPRDRNYASDAQQTTNHMNCNAGGYNAEPKQQAYQSRRLSSSSNADVLTICAGTQTDPFNPSPPRKSLPQVVYSDIDVSNLANKPEAISKASSTTGTQCDILTTNQAGRRLSPIMQDYIAEEEEPLPPPQARVIPQFPSPRPHPPIAQSTGYRANTPQAKRIPQLAKPNTEKSMVMNELALKYLRQPVDELMKDMRLGASPKSPNPEPLRPIDNIGHAQSPNDISNASYKYLKKYRLLPEEQLEPVCPQSPMAATAPSPHIQLDLENIRNQPKLL
**Q.** How did the binding turn out when B1 was run?
**A.** no binding
